Results reported in the supplement of paper PMC10849652.
Some of the results follow.

Chains of the proteins cited; added tags and fusions are not shown. Lines headed by an entry give the natural chain unless they say otherwise; changes in a name come on top.
UniProt Q04941: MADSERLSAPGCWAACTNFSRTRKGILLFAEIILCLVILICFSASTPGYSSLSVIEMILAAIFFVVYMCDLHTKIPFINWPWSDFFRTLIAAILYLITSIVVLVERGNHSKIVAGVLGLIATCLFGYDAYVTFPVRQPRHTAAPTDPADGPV
UniProt Q9HBL7: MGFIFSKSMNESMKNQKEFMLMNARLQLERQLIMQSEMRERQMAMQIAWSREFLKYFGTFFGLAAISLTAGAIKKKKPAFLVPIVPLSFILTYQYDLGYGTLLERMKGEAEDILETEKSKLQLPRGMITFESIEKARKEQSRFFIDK
UniProt O75439: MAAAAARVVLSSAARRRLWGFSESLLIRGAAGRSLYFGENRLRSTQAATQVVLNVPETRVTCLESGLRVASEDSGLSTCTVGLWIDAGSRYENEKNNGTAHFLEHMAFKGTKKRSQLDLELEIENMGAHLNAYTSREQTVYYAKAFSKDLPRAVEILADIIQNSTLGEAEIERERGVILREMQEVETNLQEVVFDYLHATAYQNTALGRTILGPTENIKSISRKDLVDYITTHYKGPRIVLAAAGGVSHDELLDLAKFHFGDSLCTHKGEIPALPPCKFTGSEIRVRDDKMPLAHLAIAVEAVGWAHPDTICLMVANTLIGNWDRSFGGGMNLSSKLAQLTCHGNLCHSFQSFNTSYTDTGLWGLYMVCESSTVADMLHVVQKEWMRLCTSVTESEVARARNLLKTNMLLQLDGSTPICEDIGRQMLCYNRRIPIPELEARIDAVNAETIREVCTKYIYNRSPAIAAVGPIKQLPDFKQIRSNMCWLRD
UniProt P41247: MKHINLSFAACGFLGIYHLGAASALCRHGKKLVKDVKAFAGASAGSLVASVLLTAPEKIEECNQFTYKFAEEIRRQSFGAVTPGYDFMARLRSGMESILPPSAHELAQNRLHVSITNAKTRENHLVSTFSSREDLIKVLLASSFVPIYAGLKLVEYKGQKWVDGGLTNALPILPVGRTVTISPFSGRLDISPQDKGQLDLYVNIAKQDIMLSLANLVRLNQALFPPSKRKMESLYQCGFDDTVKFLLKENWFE
UniProt P45877: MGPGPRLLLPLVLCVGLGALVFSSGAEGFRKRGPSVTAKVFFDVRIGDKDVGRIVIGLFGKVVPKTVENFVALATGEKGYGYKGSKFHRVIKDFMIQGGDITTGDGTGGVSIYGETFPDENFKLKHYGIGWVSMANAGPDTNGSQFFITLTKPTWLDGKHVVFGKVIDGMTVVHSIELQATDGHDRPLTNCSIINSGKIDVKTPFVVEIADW
UniProt Q13794: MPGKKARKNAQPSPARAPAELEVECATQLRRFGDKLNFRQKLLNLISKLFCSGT
UniProt Q9NP80: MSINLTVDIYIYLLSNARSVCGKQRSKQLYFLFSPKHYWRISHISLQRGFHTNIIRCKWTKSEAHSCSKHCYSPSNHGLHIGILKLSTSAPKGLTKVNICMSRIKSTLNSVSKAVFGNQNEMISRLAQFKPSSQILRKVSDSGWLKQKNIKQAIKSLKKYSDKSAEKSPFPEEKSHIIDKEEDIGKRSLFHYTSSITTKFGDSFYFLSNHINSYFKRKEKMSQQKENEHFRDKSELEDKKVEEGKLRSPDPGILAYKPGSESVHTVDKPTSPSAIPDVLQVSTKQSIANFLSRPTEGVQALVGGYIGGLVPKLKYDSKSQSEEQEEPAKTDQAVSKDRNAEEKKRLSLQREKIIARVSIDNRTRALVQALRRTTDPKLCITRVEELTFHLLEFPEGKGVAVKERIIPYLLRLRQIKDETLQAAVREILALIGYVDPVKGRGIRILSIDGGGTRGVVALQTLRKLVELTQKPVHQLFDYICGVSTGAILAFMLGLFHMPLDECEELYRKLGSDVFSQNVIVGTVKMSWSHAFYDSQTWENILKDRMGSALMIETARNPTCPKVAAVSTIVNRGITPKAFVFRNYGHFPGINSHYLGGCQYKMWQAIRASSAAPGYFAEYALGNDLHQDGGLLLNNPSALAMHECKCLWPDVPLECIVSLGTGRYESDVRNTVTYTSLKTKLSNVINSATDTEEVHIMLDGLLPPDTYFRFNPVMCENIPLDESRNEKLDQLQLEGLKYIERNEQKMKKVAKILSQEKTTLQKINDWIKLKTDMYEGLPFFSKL
UniProt Q92871: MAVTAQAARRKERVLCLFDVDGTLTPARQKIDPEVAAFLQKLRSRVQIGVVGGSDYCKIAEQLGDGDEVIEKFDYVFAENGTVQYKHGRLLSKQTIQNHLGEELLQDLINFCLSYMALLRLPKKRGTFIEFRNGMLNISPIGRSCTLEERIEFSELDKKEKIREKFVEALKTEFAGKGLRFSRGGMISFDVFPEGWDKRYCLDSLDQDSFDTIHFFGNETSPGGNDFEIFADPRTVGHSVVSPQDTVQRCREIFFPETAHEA
UniProt Q96AD5: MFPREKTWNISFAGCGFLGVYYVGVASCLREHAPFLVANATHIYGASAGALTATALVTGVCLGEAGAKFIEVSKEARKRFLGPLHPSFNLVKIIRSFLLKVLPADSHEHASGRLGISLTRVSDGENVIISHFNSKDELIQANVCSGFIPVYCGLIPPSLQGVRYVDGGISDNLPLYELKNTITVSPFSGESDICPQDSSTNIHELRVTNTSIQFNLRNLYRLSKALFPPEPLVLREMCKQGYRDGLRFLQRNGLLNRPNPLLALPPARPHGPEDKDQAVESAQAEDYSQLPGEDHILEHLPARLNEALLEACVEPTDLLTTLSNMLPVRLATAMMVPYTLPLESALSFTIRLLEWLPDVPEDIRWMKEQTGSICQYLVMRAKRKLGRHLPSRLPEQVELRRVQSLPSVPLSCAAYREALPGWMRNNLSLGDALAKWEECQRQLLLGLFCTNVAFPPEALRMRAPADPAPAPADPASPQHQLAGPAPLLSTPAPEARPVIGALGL
UniProt P54278: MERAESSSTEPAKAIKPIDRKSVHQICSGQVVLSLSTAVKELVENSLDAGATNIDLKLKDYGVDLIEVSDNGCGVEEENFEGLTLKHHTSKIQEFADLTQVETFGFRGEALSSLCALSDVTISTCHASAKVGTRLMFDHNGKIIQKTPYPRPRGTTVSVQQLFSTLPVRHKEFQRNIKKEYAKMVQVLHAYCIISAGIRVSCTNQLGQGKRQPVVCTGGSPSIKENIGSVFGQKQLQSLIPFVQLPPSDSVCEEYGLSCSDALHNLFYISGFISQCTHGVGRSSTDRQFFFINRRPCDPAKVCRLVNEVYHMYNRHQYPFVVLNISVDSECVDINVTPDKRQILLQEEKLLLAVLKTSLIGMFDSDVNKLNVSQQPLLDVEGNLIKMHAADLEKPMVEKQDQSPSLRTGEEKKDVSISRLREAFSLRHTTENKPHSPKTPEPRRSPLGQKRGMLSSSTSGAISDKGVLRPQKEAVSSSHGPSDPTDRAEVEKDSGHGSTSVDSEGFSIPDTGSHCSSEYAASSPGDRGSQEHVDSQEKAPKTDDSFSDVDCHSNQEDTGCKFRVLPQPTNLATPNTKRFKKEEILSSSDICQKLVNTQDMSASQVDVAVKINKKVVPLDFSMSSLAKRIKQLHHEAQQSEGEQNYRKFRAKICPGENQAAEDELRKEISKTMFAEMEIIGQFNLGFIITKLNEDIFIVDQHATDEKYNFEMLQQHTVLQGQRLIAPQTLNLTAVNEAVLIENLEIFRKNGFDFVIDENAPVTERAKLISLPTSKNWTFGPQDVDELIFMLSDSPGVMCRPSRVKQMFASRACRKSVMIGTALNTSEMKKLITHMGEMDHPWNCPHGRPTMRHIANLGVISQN
UniProt P00747, whole entry, looked up: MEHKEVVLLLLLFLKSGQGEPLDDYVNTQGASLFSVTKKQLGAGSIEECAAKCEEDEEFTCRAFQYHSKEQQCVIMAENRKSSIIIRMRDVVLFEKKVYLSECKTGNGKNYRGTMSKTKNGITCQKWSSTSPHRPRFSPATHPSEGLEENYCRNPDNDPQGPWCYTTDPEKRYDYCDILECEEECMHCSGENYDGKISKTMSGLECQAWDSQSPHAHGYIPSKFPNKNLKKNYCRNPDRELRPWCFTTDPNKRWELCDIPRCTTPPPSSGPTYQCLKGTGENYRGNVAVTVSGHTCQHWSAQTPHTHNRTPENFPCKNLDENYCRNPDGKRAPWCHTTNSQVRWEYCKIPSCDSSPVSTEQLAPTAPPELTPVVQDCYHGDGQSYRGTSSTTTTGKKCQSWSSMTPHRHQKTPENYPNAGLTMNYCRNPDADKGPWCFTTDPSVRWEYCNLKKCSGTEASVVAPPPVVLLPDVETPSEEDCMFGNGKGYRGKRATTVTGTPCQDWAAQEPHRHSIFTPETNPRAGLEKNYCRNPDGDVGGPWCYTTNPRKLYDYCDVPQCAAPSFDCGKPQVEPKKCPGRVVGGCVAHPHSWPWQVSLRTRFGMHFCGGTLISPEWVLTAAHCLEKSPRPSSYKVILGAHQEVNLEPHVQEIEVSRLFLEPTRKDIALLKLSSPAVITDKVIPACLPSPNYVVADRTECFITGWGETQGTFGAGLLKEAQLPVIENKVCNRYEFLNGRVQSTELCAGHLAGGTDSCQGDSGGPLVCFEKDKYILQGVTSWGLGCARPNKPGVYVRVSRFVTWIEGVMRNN
UniProt O15305: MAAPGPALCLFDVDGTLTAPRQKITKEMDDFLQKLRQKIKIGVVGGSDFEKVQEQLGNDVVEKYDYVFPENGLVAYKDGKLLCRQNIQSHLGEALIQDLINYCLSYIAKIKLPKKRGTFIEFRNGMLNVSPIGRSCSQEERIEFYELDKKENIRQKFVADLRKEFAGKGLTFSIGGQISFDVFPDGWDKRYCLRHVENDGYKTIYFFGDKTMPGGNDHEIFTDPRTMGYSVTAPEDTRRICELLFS
UniProt Q9Y535: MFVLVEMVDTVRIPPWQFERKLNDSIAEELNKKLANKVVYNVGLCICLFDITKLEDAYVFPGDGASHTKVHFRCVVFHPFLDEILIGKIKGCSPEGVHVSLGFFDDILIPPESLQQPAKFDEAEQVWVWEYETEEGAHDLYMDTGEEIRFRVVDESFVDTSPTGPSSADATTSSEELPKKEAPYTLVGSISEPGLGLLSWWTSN
UniProt P53350, whole entry, looked up: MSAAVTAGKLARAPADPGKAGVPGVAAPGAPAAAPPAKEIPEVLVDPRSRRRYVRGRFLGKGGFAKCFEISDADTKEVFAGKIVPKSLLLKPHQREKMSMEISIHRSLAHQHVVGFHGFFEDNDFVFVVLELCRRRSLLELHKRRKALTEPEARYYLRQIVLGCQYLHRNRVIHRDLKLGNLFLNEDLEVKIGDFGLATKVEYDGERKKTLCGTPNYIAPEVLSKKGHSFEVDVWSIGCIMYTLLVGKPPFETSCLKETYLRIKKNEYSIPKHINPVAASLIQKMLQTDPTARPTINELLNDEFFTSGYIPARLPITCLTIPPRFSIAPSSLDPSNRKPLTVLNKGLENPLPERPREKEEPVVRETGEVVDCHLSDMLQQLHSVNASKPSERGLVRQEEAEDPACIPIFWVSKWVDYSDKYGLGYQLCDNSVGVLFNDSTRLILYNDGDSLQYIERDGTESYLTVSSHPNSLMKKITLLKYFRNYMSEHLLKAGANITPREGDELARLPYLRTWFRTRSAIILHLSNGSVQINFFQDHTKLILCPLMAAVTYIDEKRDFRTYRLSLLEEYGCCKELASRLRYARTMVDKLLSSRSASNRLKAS

Columns and labels:
Assay in all cases: log2 fold change, soluble protein after heating vs DMSO (PISA); higher = thermal stabilisation; K562 cells, 10 uM, 30 min; active = over 0.2 and 3.5 SD of the protein, either way, in both replicates (recomputed)
[1] = compound: CN1CCN(CCOc2cc(OC3CCOCC3)c3c(Nc4c(Cl)ccc5c4OCO5)ncnc3c2)CC1 [saracatinib]
Method in brief: (§1)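 K562 cells at 2×10^6 cells/mL were exposed to 10 μM compound for 30 min, then aliquots were heated for 3 min across 48°C-58°C, pooled, and extracted in PBS containing 0.5% NP-40 at 4°C. The supernatant after 21,000xg for 90 min was taken as soluble protein and measured by TMTpro 16plex LC-MS/MS with channel sums equalised. Thermal stability is reported relative to control samples, with values from duplicates. Fold changes are given on a log2 scale.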

[2] = compound: CN1CCN(c2nc(C3=C(c4c[nH]c5ccccc45)C(=O)NC3=O)c3ccccc3n2)CC1 [sotrastaurin]
Method in brief: as §1

[3] = compound: CN1CC[C@H](c2c(O)cc(O)c3c(=O)cc(-c4ccccc4Cl)oc23)[C@H](O)C1 [alvocidib]
Method in brief: as §1

[4] = compound: CNC(=O)C1=CC=CC=C1NC2=NC(=NC=C2Cl)NC3=C(C=C(C=C3)N4CCOCC4)OC
Method in brief: as §1

[5] = compound: CNC(=O)c1ccc(Nc2ncc(C(F)(F)F)c(NCc3nccnc3N(C)S(C)(=O)=O)n2)cc1 [defactinib]
Method in brief: as §1

[6] = compound: CNCc1ccc(-c2[nH]c3cc(F)cc4c3c2CCNC4=O)cc1 [rucaparib]
Method in brief: as §1

[7] = compound: CNc1nc(-c2ccc3c(N)n[nH]c3c2)cc(N2C[C@@H](C(=O)NC3CCCCC3)CC[C@H]2C)n1
Method in brief: as §1

[8] = compound: COC(=O)N[C@@H](C)CNc1nccc(-c2cn(C(C)C)nc2-c2cc(Cl)cc(NS(C)(=O)=O)c2F)n1 [encorafenib]
Method in brief: as §1

[9] = compound: COC(=O)[C@H](CCSC)NC(=O)C1=C(C=C(C=C1)NC[C@H](CS)N)C2=CC=CC=C2
Method in brief: as §1

[10] = compound: COC1=CC=C(C=C1)CN2C=CC3=C2C=C(C=C3)C(=O)NO
Method in brief: as §1

[11] = compound: CON(C)C(=O)N1N=C(c2cc(F)ccc2F)S[C@@]1(CCCN)c1ccccc1 [filanesib]
Method in brief: as §1

[12] = compound: CO[C@H]1C[C@@H]2CC[C@@H](C)[C@@](O)(O2)C(=O)C(=O)N2CCCC[C@H]2C(=O)O[C@H]([C@H](C)C[C@@H]2CC[C@H](n3cnnn3)[C@H](OC)C2)CC(=O)[C@H](C)/C=C(\C)[C@@H](O)[C@@H](OC)C(=O)[C@H](C)C[C@H](C)/C=C/C=C/C=C/1C [zotarolimus]
Method in brief: as §1

[13] = compound: COc1cc(C(=O)O)ccc1NC(=O)[C@@H]1N[C@@H](CC(C)(C)C)[C@](C#N)(c2ccc(Cl)cc2F)[C@H]1c1cccc(Cl)c1F [idasanutlin]
Method in brief: as §1

[14] = compound: COc1cc(Nc2ncc3c(n2)-c2ccc(Cl)cc2C(c2c(F)cccc2OC)=NC3)ccc1C(=O)O [alisertib]
Method in brief: as §1

[15] = compound: COc1cc2nc(-c3cc(F)ccc3O)nc(N[C@@H]3CNC[C@H]3C(C)(C)O)c2cc1OC
Method in brief: as §1

[16] = compound: COc1cc2ncnc(Nc3ccc(F)c(Cl)c3)c2cc1OCCCN1CCOCC1 [gefitinib]
Method in brief: as §1

[17] = compound: COc1cccc2cc(-c3nc([C@H]4CC[C@H](C(=O)O)CC4)n4ncnc(N)c34)[nH]c12
Method in brief: as §1

[18] = compound: CS(=O)(=O)CCNCc1ccc(-c2ccc3ncnc(Nc4ccc(OCc5cccc(F)c5)c(Cl)c4)c3c2)o1 [lapatinib]
Method in brief: as §1

[19] = compound: CS(=O)(=O)N1CCN(Cc2cc3nc(-c4cccc5[nH]ncc45)nc(N4CCOCC4)c3s2)CC1 [pictilisib]
Method in brief: as §1

[20] = compound: CN1CCc2c(c3ccccc3n2Cc2ccc(C(=O)NO)cc2)C1 [Tubastatin A]
Method in brief: as §1

Measured: log2 fold change

PLP2 (UniProt Q04941)
inactive: [1] 0.076 | [2] 0.056 | [3] 0.027 | [4] -0.274 | [5] 0 | [6] -0.038 | [7] -0.058 | [8] -0.124 | [9] -0.201 | [10] -0.057 | [11] 0.076 | [12] -0.033 | [13] 0.016 | [14] -0.188 | [15] -0.063 | [16] 0.147 | [17] 0.138 | [18] -0.019 | [19] -0.032

PLGRKT (UniProt Q9HBL7)
inactive: [1] 0.086 | [2] 0.051 | [3] -0.01 | [20] -0.029 | [4] -0.001 | [6] -0.104 | [7] -0.086 | [8] -0.126 | [11] 0.147 | [12] 0.093 | [13] 0.071 | [14] 0.116 | [16] -0.017 | [17] 0.069 | [19] -0.001

PMPCB (UniProt O75439)
inactive: [1] 0.001 | [2] 0.051 | [20] -0.068 | [4] 0.005 | [5] -0.042 | [6] -0.033 | [7] -0.003 | [8] -0.022 | [9] -0.029 | [10] -0.046 | [11] 0.036 | [12] 0.047 | [13] -0.122 | [14] -0.078 | [15] 0.046 | [16] 0.006 | [17] 0.008 | [18] -0.054 | [19] -0.012

PNPLA4 (UniProt P41247)
inactive: [1] -0.267 | [2] -0.091 | [20] 0.007 | [4] 0.058 | [5] -0.047 | [6] 0 | [7] 0.17 | [8] -0.343 | [9] -0.011 | [10] 0.041 | [11] -0.184 | [12] -0.142 | [13] 0.003 | [14] 0.026 | [15] -0.133 | [16] 0.015 | [17] 0.113 | [18] -0.049

PPIC (UniProt P45877)
inactive: [1] -0.145 | [2] -0.072 | [3] -0.028 | [4] 0.022 | [6] -0.069 | [7] -0.05 | [8] -0.251 | [10] -0.043 | [11] 0.082 | [12] -0.083 | [13] -0.111 | [14] 0.056 | [15] 0.058 | [16] -0.03 | [17] 0.072 | [18] 0.052 | [19] 0.092

PNKP (UniProt Q96T60)
inactive: [1] -0.043 | [2] 0.164 | [3] 0.115 | [20] -0.077 | [5] -0.055 | [6] 0.356 | [7] 0.041 | [8] 0 | [9] -0.224 | [10] -0.185 | [11] 0.052 | [12] -0.067 | [13] -0.144 | [15] 0.421 | [18] -0.135 | [19] 0.273

PMAIP1 (UniProt Q13794)
inactive: [1] -0.076 | [2] -0.01 | [3] -0.027 | [20] 0.284 | [4] -0.029 | [5] 0.05 | [6] -0.113 | [7] -0.006 | [8] 0.147 | [9] -0.014 | [11] 0.053 | [12] 0.236 | [13] 0.143 | [14] -0.059 | [15] -0.433 | [16] -0.363 | [17] 0.046 | [18] -0.095 | [19] 0.037

PNPLA8 (UniProt Q9NP80)
inactive: [1] 0.022 | [2] 0.052 | [20] -0.009 | [4] -0.021 | [5] -0.051 | [6] 0.038 | [7] -0.016 | [8] 0.026 | [9] -0.01 | [10] -0.061 | [11] 0.006 | [12] -0.077 | [13] -0.072 | [14] -0.053 | [15] -0.125 | [16] 0.032 | [17] 0.047 | [18] -0.022 | [19] 0.118

PMM1 (UniProt Q92871)
active: [4] -0.315
inactive: [1] 0.006 | [2] 0.094 | [20] -0.018 | [5] -0.007 | [6] 0.095 | [7] 0.028 | [8] -0.017 | [9] -0.023 | [10] -0.084 | [11] 0.021 | [12] -0.003 | [13] 0.022 | [14] -0.039 | [15] 0.124 | [16] 0.16 | [17] 0.022 | [18] -0.02 | [19] -0.17

PNPLA2 (UniProt Q96AD5)
inactive: [1] 0.015 | [2] -0.028 | [20] -0.034 | [4] -0.039 | [5] 0 | [6] -0.06 | [7] 0.154 | [8] -0.012 | [9] -0.056 | [10] -0.089 | [11] -0.134 | [12] 0.002 | [13] -0.082 | [14] 0.014 | [15] -0.077 | [16] -0.048 | [17] 0.029 | [18] -0.032 | [19] 0.02

POLR2F (UniProt P61218)
inactive: [1] -0.029 | [2] -0.062 | [3] -0.019 | [20] 0.063 | [4] 0.063 | [5] 0.034 | [7] -0.197 | [9] 0.026 | [10] 0.185 | [11] -0.065 | [12] 0.081 | [13] 0.071 | [14] -0.416 | [15] 0.099 | [16] -0.027 | [17] -0.208 | [18] 0.009 | [19] 0.108

POLR2C (UniProt P19387)
inactive: [1] -0.096 | [2] -0.015 | [20] -0.049 | [4] -0.043 | [5] 0.133 | [6] 0.059 | [7] 0.03 | [8] 0.002 | [9] -0.045 | [10] -0.04 | [11] 0.034 | [12] -0.012 | [13] -0.074 | [14] 0.013 | [15] -0.022 | [16] -0.045 | [17] 0.086 | [18] 0.099

PMS2 (UniProt P54278)
inactive: [1] 0.31 | [2] 0.258 | [3] -0.06 | [4] 0.261 | [5] -0.109 | [6] -0.842 | [7] 0.088 | [8] 0.201 | [9] 0.093 | [10] -0.883 | [11] 0.321 | [12] -0.152 | [13] -0.405

PLG (UniProt P00747)
inactive: [1] 0.248 | [2] 0.278 | [3] -0.201 | [20] -0.145 | [4] 0.1 | [5] -0.244 | [7] 0.094 | [9] 0.291 | [10] -0.251 | [11] 0.24 | [12] -0.053 | [13] 0.31 | [15] 0.016 | [16] -0.041 | [18] -0.062 | [19] -0.073

PPIP5K2 (UniProt H0Y9S9)
inactive: [1] 0.178 | [2] 0 | [3] -0.073 | [20] 0.128 | [6] 0.032 | [7] -0.01 | [8] -0.12 | [10] 0.178 | [11] -0.178 | [12] 0.035 | [14] -0.168 | [15] -0.184 | [16] 0.049 | [17] -0.099 | [18] 0.065

PMM2 (UniProt O15305)
inactive: [1] -0.025 | [2] 0.062 | [20] -0.031 | [4] -0.183 | [5] 0.022 | [6] 0.018 | [7] -0.02 | [8] -0.006 | [9] 0.058 | [10] -0.054 | [11] -0.014 | [12] -0.01 | [13] 0.011 | [14] 0.009 | [15] 0.071 | [16] 0.016 | [17] 0.034 | [18] -0.088 | [19] -0.113

Pulled one by one from the entries so far (2):
PMM2 (UniProt O15305)
inactive: [1] -0.025 | [2] 0.062 | [20] -0.031 | [4] -0.183 | [5] 0.022 | [6] 0.018 | [7] -0.02 | [8] -0.006 | [9] 0.058 | [10] -0.054 | [11] -0.014 | [12] -0.01 | [13] 0.011 | [14] 0.009 | [15] 0.071 | [16] 0.016 | [17] 0.034 | [18] -0.088 | [19] -0.113

PLG (UniProt P00747)
inactive: [1] 0.248 | [2] 0.278 | [3] -0.201 | [20] -0.145 | [4] 0.1 | [5] -0.244 | [7] 0.094 | [9] 0.291 | [10] -0.251 | [11] 0.24 | [12] -0.053 | [13] 0.31 | [15] 0.016 | [16] -0.041 | [18] -0.062 | [19] -0.073

Following part:

POLR3H (UniProt Q9Y535)
inactive: [1] 0.058 | [2] 0.072 | [3] -0.015 | [4] -0.024 | [5] -0.059 | [7] 0.05 | [9] -0.005 | [10] -0.012 | [11] 0.115 | [12] 0.015 | [13] -0.002 | [14] 0.007 | [15] 0.111 | [16] -0.016 | [17] 0.024 | [18] -0.035 | [19] 0

PLK1 (UniProt P53350)
inactive: [1] 0.034 | [2] -0.223 | [20] -0.058 | [5] -0.165 | [6] 0.052 | [7] -0.008 | [8] 0.058 | [9] -0.013 | [10] 0.013 | [11] 0.068 | [12] -0.021 | [13] 0.014 | [14] 0.02 | [15] 0.092 | [16] -0.024 | [17] -0.133 | [18] 0.041 | [19] -0.072
active: [4] -2.06
